Source: the supplement of paper PMC10849652
The other results are listed elsewhere or left out.

By UniProt entry, the sequences of proteins in these tests, tags left out. Where a name states a change or a piece, a line headed by the entry shows the natural chain unless it says otherwise.
UniProt Q658P3: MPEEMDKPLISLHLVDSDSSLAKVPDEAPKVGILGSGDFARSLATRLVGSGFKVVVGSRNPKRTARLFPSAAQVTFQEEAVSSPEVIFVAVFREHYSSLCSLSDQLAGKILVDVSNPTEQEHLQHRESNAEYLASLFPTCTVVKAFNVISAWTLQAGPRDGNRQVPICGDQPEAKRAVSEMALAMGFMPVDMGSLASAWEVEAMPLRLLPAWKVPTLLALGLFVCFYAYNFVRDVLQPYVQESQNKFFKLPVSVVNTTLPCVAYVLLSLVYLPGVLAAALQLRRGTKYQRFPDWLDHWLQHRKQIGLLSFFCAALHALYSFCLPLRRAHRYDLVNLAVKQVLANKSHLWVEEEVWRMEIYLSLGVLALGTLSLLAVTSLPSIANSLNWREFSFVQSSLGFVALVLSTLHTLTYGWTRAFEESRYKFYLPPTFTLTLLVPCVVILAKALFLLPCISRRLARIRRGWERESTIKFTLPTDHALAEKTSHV
UniProt Q5T280: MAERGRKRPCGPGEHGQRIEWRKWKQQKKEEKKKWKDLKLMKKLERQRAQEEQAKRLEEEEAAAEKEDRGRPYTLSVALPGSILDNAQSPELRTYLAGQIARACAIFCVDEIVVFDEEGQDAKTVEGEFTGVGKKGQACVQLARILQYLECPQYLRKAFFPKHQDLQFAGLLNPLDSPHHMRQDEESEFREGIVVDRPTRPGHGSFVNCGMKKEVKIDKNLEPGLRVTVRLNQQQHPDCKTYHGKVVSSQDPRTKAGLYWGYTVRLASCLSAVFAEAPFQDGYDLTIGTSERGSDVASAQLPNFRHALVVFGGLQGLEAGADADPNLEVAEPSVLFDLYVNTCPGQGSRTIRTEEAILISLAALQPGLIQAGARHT
UniProt Q16385, whole entry, looked up: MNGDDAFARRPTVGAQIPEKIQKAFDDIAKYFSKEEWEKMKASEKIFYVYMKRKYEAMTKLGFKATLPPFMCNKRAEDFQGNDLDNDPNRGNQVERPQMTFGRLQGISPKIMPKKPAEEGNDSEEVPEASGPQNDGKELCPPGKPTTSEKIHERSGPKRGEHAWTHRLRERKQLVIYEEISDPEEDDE
UniProt Q68D10: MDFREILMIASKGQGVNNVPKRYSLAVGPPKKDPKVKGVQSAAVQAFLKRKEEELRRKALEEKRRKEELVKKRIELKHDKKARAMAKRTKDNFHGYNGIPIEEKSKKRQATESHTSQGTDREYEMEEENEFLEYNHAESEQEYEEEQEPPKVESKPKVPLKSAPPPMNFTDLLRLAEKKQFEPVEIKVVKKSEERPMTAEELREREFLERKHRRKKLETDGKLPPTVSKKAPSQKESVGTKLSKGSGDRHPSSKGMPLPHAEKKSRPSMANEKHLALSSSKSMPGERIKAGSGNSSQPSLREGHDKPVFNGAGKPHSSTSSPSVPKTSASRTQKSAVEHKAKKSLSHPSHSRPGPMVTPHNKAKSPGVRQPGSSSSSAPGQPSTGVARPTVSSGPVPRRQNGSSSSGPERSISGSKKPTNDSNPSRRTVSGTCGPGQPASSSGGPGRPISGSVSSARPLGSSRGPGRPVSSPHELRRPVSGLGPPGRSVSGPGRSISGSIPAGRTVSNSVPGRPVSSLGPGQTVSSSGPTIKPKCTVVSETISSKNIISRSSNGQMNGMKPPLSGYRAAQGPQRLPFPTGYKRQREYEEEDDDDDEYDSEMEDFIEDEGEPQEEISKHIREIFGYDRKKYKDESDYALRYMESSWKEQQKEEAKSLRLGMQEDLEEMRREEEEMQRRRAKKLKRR
UniProt Q86XZ4: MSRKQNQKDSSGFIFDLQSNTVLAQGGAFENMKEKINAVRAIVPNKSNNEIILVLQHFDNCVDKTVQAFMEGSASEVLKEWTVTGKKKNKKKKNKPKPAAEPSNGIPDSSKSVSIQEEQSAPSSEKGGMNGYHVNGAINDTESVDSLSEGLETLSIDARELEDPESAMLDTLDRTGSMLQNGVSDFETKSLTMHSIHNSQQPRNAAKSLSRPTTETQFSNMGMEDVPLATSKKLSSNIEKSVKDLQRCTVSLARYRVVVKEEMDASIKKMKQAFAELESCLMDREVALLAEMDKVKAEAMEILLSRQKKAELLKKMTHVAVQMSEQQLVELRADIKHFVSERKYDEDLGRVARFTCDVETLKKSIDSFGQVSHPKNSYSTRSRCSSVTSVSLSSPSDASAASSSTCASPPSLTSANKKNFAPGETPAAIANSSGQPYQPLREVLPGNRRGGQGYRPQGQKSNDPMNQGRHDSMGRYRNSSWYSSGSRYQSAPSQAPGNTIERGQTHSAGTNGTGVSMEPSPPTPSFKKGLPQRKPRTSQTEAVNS
UniProt Q9NZD8: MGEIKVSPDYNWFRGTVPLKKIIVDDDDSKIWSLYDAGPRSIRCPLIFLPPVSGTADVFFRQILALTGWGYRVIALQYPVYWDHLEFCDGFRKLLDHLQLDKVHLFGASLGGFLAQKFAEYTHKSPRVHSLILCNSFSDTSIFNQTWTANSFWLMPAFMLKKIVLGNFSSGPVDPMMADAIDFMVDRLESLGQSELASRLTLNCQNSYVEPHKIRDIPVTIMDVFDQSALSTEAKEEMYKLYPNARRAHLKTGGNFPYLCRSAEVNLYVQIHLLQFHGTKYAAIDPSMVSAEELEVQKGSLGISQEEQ
UniProt Q9NP77: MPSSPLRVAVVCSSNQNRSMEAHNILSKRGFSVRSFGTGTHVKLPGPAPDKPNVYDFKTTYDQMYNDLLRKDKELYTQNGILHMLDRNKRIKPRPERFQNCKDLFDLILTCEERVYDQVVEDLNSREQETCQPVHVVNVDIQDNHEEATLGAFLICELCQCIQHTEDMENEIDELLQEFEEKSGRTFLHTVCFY
UniProt Q9BUA3: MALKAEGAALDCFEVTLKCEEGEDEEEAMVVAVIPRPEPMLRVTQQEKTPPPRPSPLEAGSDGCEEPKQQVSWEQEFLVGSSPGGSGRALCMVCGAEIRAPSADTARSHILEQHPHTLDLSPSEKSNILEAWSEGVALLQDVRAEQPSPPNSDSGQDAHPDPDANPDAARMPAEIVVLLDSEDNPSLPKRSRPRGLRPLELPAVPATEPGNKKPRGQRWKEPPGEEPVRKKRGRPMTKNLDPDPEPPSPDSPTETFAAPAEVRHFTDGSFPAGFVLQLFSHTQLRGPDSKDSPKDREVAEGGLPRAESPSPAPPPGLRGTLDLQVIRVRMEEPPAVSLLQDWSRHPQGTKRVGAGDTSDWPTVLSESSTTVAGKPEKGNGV
UniProt Q11206: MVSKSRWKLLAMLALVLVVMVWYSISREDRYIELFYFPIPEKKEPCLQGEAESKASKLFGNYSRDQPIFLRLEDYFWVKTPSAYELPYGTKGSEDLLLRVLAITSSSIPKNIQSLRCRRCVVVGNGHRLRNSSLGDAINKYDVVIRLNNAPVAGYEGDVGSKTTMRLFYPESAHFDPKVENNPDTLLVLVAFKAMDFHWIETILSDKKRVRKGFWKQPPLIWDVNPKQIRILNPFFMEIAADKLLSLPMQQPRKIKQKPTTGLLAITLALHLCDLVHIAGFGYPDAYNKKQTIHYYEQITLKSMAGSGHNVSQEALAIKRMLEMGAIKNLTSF
UniProt Q9ULZ2: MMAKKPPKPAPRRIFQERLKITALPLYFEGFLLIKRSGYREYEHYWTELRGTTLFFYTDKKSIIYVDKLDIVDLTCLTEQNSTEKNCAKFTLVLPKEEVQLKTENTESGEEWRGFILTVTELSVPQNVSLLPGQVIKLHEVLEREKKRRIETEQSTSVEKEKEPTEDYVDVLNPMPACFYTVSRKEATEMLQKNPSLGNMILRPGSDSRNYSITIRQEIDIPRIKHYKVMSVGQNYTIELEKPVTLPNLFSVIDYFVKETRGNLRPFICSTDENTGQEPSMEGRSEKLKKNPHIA
UniProt P49675, whole entry, looked up: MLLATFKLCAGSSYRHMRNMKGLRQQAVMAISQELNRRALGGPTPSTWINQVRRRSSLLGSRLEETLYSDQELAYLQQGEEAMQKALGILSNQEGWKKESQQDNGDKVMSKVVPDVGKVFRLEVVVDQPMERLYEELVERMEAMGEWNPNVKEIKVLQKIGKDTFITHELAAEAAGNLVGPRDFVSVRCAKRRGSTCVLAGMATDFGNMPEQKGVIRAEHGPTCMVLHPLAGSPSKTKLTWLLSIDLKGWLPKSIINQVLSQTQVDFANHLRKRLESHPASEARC
UniProt Q01082, whole entry, looked up: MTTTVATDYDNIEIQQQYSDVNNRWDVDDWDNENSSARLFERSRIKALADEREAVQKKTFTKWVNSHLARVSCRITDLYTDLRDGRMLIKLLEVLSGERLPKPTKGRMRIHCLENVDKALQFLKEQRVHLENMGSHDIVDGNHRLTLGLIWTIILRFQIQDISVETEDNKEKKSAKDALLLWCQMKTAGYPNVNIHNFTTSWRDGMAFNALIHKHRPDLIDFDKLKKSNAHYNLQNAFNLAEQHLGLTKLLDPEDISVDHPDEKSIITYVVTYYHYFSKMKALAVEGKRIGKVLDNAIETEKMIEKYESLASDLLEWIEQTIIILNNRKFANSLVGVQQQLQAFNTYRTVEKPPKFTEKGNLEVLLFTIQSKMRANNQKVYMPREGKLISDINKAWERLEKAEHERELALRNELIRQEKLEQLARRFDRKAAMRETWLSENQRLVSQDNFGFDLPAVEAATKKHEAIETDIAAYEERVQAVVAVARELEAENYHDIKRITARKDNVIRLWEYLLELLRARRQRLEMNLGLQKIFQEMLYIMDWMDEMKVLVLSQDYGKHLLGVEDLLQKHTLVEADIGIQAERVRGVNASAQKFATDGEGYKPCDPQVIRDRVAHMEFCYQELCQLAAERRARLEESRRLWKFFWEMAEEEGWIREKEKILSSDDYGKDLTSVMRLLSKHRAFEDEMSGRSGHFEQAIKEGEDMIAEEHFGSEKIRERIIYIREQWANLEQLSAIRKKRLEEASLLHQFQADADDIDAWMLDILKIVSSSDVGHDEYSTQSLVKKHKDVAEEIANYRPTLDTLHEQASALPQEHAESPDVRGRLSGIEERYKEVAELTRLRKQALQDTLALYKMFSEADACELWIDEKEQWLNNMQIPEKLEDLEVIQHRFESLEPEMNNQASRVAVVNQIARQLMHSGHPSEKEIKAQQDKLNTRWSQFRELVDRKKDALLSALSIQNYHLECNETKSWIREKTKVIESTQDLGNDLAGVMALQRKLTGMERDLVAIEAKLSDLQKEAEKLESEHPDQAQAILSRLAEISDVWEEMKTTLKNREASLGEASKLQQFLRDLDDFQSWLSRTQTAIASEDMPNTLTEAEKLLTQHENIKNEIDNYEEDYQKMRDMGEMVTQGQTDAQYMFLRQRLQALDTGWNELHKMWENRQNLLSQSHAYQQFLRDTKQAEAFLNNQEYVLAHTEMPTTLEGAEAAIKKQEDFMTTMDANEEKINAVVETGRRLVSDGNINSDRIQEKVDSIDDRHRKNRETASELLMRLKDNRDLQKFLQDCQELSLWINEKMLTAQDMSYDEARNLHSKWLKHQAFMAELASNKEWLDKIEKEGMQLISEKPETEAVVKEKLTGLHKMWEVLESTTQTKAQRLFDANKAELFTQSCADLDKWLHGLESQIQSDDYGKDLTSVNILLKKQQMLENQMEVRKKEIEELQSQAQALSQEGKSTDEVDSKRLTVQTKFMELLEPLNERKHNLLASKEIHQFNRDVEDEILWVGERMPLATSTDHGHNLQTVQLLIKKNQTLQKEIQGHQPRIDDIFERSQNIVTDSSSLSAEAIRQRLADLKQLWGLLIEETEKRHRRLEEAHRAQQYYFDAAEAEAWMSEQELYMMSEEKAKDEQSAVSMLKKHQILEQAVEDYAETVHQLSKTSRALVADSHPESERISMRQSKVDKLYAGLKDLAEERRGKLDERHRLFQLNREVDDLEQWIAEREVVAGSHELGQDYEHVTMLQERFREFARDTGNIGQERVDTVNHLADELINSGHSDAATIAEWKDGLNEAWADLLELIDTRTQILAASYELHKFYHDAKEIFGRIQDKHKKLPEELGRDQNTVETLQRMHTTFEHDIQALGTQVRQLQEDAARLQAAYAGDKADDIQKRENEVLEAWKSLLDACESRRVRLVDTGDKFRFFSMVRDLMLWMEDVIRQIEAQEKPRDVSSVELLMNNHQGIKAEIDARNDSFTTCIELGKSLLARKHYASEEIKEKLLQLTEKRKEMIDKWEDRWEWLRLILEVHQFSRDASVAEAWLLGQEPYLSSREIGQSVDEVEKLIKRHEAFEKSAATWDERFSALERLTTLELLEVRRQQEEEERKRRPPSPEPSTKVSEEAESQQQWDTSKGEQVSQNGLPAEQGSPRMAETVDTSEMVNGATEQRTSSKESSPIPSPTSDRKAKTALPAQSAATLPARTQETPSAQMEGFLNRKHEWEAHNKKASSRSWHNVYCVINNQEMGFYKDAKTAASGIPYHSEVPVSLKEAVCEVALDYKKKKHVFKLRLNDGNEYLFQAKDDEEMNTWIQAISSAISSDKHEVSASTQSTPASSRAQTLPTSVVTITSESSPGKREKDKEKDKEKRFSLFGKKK
UniProt P49458: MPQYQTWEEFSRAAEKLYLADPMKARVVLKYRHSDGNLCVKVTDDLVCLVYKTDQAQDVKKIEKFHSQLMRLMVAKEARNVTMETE

These targets were tested with Cc1nc(Nc2n[nH]c3c2CN(C(=O)N[C@H](CN(C)C)c2ccccc2)C3(C)C)c2sccc2n1 (assay: log2 fold change, soluble protein after heating vs DMSO (PISA); higher = thermal stabilisation; K562 lysate, 10 uM; active = over 0.2 and 3.5 SD of the protein, either way, in both replicates (recomputed)).
Summary of the method: (§1)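 Values give the log-two fold change in thermal stability against solvent controls, from duplicates. Crude K562 extract at 1 mg/mL protein, made by dounce homogenisation in PBS pH 7.4 with 1 mM MgCl2, was treated with 10 μM compound for 30 min. After 3 min heating across 48°C-58°C, aliquots were pooled, adjusted to 0.5% NP-40 at 4°C and centrifuged at 21,000xg for 90 min. The supernatant was measured by TMTpro 16plex LC-MS/MS with channel sums equalised.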

log2 fold change, inactive:
STEAP3 isoform 2 (UniProt Q658P3) 0.016
STAT3 isoform 2 (UniProt P40763) -0.022
SPOUT1 (UniProt Q5T280) 0.122
STAT1 isoform 2 (UniProt P42224) 0.075
SRSF7 (UniProt Q16629) -0.053
SREK1IP1 (UniProt Q8N9Q2) -0.049
SPTAN1 (UniProt Q13813) -0.008
SSX2 (UniProt Q16385) 0.029
SPTY2D1 (UniProt Q68D10) -0.094
STARD3NL (UniProt O95772) -0.055
SPATS2 (UniProt Q86XZ4) 0.042
SPG21 (UniProt Q9NZD8) -0.019
STARD9 (UniProt Q9P2P6) -0.091
STAMBP (UniProt O95630) 0.024
SSU72 (UniProt Q9NP77) -0.007
SPINDOC (UniProt Q9BUA3) 0.031
SPIRE1 (UniProt Q08AE8) 0.011
SPINT1 (UniProt O43278) -0.023
SSBP4 (UniProt Q9BWG4) 0.091
SPATA33 isoform 2 (UniProt Q96N06) 0.041
ST3GAL4 isoform 4 (UniProt Q11206) -0.137
STAG1 (UniProt Q8WVM7) -0.051
SPRED2 (UniProt Q7Z698) -0.027
SS18L1 (UniProt O75177) -0.078
ST6GALNAC1 (UniProt Q9NSC7) -0.03
SPATS2L isoform 2 (UniProt Q9NUQ6) 0.102
SPATA7 (UniProt Q9P0W8) -0.049
SPG11 (UniProt Q96JI7) 0.026
STAU1 isoform 3 (UniProt O95793) -0.024
STAP1 (UniProt Q9ULZ2) -0.259
STAR (UniProt P49675) -0.092
SPTBN1 isoform 3 (UniProt Q01082) -0.086
SRP9 (UniProt P49458) 0.01

The targets below were run with Cc1nc(Nc2ncc(C(=O)Nc3c(C)cccc3Cl)s2)cc(N2CCN(CCO)CC2)n1 [dasatinib] in the same assay as above.
Summary of the method: as §1

log2 fold change, inactive:
STEAP3 isoform 2 (UniProt Q658P3) 0.202
STAT3 isoform 2 (UniProt P40763) -0.019
SPOUT1 (UniProt Q5T280) -0.028
SRSF7 (UniProt Q16629) 0.011
SPTAN1 (UniProt Q13813) 0.052
SSX2 (UniProt Q16385) 0.086
SPTY2D1 (UniProt Q68D10) -0.12
STARD3NL (UniProt O95772) 0.056
SPATS2 (UniProt Q86XZ4) -0.073
SPG21 (UniProt Q9NZD8) 0.003
STARD9 (UniProt Q9P2P6) 0.018
STAMBP (UniProt O95630) 0.036
SSU72 (UniProt Q9NP77) -0.008
SPINDOC (UniProt Q9BUA3) 0.046
SPIRE1 (UniProt Q08AE8) 0.037
SPATA33 isoform 2 (UniProt Q96N06) 0.077
ST3GAL4 isoform 4 (UniProt Q11206) -0.045
STAG1 (UniProt Q8WVM7) 0.038
ST6GALNAC1 (UniProt Q9NSC7) 0.026
SPG11 (UniProt Q96JI7) -0.052
STAP1 (UniProt Q9ULZ2) -0.054
STAR (UniProt P49675) 0.046
SPTBN1 isoform 3 (UniProt Q01082) 0.009
SRP9 (UniProt P49458) 0.032

Each target was assayed with Cc1ncc(-c2ccnc(Nc3ccc(S(C)(=O)=O)cc3)n2)n1C(C)C in the same assay as above.
Summary of the method: as §1

log2 fold change, inactive:
STEAP3 isoform 2 (UniProt Q658P3) -0.028
STAT3 isoform 2 (UniProt P40763) 0
SPOUT1 (UniProt Q5T280) -0.046
STAT1 isoform 2 (UniProt P42224) 0.095
SRSF7 (UniProt Q16629) -0.056
SREK1IP1 (UniProt Q8N9Q2) 0.105
SPTAN1 (UniProt Q13813) 0.01
SSX2 (UniProt Q16385) -0.024
SPTY2D1 (UniProt Q68D10) -0.19
STARD3NL (UniProt O95772) 0.12
SPATS2 (UniProt Q86XZ4) 0.074
SPG21 (UniProt Q9NZD8) 0.036
STARD9 (UniProt Q9P2P6) 0.009
STAMBP (UniProt O95630) -0.002
SSU72 (UniProt Q9NP77) -0.028
SPINDOC (UniProt Q9BUA3) -0.037
SPIRE1 (UniProt Q08AE8) -0.03
SPINT1 (UniProt O43278) 0.049
SSBP4 (UniProt Q9BWG4) 0.03
SPATA33 isoform 2 (UniProt Q96N06) 0.05
ST3GAL4 isoform 4 (UniProt Q11206) 0.157
STAG1 (UniProt Q8WVM7) 0.011
SPRED2 (UniProt Q7Z698) 0
SS18L1 (UniProt O75177) 0.03
ST6GALNAC1 (UniProt Q9NSC7) -0.097
SPATS2L isoform 2 (UniProt Q9NUQ6) -0.03
SPATA7 (UniProt Q9P0W8) 0.066
SPG11 (UniProt Q96JI7) 0.026
STAU1 isoform 3 (UniProt O95793) -0.023
STAP1 (UniProt Q9ULZ2) 0.231
STAR (UniProt P49675) -0.019
SPTBN1 isoform 3 (UniProt Q01082) 0.156
SRP9 (UniProt P49458) -0.025
